Reference: patent US20100172835A1 (BURNHAM INSTITUTE FOR MEDICAL RESEARCH, published 2010)
These are yes or no findings as the source states them, for the method shown. Binding calls can cover weak binding; strength is not graded here.

Biological target: neuropilin-1 (Homo sapiens (Human))
Assay: summary of the phage binding and inhibition experiments

**Q.** Which binding does the source give for CRGDK [CRGDK fragment] here?
**A.** Its binding is “binds”.
